The supplement of paper PMC12823440, “Inhibitors supercharge kinase turnover through native proteolytic circuits” (Nature, 2025)
Structures can show the parent of a compound that is named as a salt. The list shows a part of the results. Hit calls seldom repeat between salt and free forms of one compound.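 Kinases were expressed as nanoluciferase fusions in K562 cells and luminescence was read every 4 h between 2 and 18 h as percent of control, DMSO set to 100% and a positive control to 0%. A time point counts as decreased when the signal drops significantly (2 sigma). The hit call is the authors' own, does not follow from the count of time points alone, and its rule is not shown.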

Amino acid sequences for entries named in this document (tags omitted). A change or cut given only in a name is not applied to a line headed by its entry.
UniProt Q05397, whole entry, looked up: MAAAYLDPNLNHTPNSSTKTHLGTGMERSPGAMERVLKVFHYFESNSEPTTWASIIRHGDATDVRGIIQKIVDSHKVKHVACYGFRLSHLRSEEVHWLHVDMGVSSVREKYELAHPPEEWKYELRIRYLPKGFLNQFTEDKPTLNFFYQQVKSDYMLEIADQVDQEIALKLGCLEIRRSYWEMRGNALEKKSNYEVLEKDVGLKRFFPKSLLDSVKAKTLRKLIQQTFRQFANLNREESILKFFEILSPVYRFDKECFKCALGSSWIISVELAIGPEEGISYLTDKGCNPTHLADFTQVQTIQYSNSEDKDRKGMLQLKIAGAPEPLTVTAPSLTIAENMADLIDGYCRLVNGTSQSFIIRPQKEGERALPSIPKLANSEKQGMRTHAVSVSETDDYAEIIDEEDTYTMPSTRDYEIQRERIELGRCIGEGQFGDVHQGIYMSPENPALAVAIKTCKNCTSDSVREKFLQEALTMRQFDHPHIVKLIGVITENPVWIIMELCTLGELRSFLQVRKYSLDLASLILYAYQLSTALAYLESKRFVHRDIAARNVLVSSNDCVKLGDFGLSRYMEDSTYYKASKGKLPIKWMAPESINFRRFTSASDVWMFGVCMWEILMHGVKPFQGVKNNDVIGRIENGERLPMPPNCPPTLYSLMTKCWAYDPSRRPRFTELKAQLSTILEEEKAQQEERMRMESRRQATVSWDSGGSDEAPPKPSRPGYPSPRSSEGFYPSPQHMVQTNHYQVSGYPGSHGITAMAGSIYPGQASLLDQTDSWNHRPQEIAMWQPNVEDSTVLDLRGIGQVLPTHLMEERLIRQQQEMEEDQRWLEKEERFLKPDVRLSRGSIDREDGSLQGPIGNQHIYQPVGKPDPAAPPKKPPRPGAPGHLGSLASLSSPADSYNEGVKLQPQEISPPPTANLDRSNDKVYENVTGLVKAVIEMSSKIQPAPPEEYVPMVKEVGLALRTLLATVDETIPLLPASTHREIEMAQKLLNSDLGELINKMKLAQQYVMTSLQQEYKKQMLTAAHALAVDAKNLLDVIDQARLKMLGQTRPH
UniProt Q14289, whole entry, looked up: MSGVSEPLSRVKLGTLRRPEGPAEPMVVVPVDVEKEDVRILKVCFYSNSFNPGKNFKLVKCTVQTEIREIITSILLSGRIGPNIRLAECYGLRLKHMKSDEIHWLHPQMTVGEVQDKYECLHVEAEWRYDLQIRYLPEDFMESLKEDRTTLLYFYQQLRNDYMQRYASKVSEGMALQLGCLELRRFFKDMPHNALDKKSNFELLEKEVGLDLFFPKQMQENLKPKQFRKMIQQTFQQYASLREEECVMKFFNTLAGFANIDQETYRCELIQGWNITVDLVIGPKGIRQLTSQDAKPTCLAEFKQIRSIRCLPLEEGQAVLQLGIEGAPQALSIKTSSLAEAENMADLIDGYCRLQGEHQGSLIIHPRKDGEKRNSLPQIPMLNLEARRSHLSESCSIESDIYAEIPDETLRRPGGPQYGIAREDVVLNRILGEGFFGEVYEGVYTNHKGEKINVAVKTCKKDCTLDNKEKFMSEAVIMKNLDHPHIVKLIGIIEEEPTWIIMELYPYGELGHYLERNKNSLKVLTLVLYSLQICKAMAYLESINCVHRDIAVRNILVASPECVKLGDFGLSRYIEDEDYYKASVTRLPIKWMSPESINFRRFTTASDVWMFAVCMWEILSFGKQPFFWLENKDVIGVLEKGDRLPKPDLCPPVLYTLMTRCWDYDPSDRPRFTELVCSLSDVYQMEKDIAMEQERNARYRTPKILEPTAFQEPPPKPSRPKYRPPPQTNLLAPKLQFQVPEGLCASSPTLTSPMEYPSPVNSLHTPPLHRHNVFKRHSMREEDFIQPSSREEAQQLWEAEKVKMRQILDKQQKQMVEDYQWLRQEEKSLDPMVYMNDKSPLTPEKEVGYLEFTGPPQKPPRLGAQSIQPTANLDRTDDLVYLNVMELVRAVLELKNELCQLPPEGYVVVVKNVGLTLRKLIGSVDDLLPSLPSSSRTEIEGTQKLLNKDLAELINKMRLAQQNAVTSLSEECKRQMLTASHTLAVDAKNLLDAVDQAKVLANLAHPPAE
UniProt P07949, whole entry, looked up: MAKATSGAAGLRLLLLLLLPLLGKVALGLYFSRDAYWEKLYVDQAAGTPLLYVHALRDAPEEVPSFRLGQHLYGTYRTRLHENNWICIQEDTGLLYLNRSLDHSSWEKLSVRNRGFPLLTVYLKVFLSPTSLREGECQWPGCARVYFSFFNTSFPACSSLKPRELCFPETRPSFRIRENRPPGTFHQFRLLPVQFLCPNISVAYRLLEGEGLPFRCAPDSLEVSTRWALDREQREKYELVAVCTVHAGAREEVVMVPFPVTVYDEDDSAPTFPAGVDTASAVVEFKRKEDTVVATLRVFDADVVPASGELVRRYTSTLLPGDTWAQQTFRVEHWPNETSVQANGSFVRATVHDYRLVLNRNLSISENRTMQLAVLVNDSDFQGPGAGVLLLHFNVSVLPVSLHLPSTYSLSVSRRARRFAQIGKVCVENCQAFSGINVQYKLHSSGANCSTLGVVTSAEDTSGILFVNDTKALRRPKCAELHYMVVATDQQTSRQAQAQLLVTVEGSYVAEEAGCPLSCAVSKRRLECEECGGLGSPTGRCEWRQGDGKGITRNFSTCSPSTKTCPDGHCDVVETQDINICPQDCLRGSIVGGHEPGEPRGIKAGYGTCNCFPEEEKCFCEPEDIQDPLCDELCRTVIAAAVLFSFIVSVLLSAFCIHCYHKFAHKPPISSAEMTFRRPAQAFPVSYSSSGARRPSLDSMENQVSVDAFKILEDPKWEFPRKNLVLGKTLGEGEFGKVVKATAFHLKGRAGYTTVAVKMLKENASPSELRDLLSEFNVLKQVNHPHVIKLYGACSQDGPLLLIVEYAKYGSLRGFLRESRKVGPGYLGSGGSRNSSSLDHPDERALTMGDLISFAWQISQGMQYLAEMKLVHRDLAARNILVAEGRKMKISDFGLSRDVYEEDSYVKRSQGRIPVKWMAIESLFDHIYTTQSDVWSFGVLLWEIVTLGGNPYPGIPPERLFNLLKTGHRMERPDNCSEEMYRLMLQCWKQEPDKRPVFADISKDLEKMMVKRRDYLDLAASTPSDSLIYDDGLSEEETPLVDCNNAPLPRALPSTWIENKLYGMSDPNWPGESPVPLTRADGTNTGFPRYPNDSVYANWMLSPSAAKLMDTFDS
UniProt Q13546: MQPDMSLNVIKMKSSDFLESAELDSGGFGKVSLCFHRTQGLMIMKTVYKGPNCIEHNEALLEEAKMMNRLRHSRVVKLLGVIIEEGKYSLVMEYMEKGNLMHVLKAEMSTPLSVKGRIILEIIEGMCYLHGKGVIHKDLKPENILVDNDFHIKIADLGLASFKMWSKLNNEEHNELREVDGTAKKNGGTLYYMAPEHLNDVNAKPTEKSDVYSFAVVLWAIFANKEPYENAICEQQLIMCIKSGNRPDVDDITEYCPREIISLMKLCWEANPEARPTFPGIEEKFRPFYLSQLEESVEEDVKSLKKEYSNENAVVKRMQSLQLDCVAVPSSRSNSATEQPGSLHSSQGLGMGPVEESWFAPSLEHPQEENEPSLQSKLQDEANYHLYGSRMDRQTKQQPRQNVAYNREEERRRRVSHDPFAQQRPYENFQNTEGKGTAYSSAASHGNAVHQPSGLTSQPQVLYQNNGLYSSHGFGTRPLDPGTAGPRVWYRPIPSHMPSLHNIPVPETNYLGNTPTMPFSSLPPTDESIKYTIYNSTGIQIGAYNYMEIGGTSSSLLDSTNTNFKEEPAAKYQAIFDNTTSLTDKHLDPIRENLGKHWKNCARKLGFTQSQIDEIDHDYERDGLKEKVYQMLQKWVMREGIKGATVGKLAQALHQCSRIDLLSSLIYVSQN
UniProt Q9NYA1, whole entry: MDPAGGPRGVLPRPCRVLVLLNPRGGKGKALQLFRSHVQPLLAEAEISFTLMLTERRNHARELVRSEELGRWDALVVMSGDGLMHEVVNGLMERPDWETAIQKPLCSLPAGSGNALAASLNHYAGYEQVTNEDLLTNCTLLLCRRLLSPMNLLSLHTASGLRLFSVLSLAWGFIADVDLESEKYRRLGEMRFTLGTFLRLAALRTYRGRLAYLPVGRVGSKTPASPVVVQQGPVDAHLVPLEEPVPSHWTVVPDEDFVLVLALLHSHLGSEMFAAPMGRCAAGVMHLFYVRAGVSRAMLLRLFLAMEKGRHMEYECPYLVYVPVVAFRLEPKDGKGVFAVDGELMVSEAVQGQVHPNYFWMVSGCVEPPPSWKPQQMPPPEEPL
UniProt Q15208: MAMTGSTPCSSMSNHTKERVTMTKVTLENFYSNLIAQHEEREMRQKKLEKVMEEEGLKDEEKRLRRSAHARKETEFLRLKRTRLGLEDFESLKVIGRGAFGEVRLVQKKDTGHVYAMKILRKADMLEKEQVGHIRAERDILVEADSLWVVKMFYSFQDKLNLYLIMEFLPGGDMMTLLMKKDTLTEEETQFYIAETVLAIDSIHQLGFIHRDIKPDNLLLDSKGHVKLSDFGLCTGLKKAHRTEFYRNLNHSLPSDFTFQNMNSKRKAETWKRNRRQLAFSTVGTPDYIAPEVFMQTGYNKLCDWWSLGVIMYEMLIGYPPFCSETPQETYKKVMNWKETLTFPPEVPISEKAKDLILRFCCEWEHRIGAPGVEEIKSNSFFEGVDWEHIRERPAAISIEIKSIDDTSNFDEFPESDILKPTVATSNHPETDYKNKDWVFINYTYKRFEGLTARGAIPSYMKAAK
UniProt P42680: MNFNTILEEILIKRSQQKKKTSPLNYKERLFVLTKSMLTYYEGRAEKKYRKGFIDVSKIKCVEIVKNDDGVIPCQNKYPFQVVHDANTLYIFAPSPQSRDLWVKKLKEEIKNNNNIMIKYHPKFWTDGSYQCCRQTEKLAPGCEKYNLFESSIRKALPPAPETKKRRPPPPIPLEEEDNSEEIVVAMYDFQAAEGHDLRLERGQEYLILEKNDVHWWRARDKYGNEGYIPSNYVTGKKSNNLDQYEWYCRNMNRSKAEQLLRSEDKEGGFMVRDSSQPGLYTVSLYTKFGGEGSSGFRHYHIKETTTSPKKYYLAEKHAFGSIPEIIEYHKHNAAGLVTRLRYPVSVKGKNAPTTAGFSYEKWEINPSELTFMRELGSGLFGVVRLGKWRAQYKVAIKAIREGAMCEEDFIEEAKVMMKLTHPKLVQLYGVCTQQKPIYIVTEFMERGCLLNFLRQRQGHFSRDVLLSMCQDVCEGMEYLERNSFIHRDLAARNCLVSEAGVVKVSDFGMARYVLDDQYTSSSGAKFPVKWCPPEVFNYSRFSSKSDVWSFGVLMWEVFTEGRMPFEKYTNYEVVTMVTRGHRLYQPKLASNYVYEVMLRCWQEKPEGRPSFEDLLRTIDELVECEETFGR
UniProt Q6PHR2: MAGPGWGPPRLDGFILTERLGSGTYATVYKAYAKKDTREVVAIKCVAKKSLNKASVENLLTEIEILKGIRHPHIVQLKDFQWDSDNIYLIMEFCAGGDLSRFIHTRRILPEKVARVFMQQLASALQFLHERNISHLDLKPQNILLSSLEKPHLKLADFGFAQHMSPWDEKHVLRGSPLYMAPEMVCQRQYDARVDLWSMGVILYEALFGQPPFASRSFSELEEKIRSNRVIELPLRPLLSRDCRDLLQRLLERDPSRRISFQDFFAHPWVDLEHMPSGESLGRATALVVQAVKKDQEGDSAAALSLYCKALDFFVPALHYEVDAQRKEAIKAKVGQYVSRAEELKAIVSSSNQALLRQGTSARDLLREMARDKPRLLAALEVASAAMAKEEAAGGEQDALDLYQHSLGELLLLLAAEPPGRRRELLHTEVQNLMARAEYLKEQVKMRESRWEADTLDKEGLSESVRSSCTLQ

Columns and labels:
Assay in all cases: number of time points (of 5) at which kinase-Nluc abundance scored as decreased, DMSO-normalised (count); higher = more persistent destabilization
Conditions in all cases: K562; 2-18 h
PRKCA = PRKCA (UniProt P17252)
PTK2 = PTK2 (UniProt Q05397)
PTK2B = PTK2B (UniProt Q14289)
RAF1 = RAF1 (UniProt P04049)
[1] = molecular target: RAF1_S257L (clone: RAF1_mut) (UniProt P04049)
RET = RET (UniProt P07949)
[2] = molecular target: RET_M918T (clone: RET_mut) (UniProt P07949)
RIOK1 = RIOK1 (UniProt Q9BRS2)
RIPK1 = RIPK1 (UniProt Q13546)
RIPK2 = RIPK2 (UniProt O43353)
ROR2 = ROR2 (UniProt Q01974)
RPS6KA1 = RPS6KA1 (UniProt Q15418)
SPHK1 = SPHK1 (UniProt Q9NYA1)
SRC = SRC (UniProt P12931)
STK24 = STK24 (UniProt Q9Y6E0)
STK38 = STK38 (UniProt Q15208)
SYK = SYK (UniProt P43405)
TEC = TEC (UniProt P42680)
TYK2 = TYK2 (UniProt P29597)
ULK3 = ULK3 (UniProt Q6PHR2)

Measured: number of time points

CCn1c(=O)c(-c2cc[nH]n2)cc2c(C)nc(N)nc21 [Voxtalisib] (10 µM)
2: PTK2 | RIPK1
0: all other assays above

Cn1cc(-c2cnc3cnn(S(=O)(=O)c4cnc5ccc(-c6cnn(C)c6)cn45)c3c2)cn1 [Glumetinib] (10 µM)
0: all assays above

COc1ccc(S(=O)(=O)NCc2ccc(C(=O)NCCc3ccc(Cl)cn3)cc2)cc1 (10 µM)
0: all assays above

O=C(Nc1cccc(C(F)(F)F)c1)c1cccc2cc(Oc3cc(CO)ncn3)ccc12 (10 µM)
0: all assays above

O=c1cc(-c2cccc3c2Sc2ccccc2S3)oc(N2CCOCC2)c1 (10 µM)
0: all assays above

Cn1cc(C2=C(c3cn(CCCSC(=N)N)c4ccccc34)C(=O)NC2=O)c2ccccc21 [Ro 31-8220 (mesylate)] (2.5 µM)
2: RIPK1
3: [1]
0: all other assays above

Cc1nn(C)c2c1C(c1ccc(C(F)(F)F)cc1)C(C#N)=C(N)O2 (stereo not given) (10 µM)
0: all assays above

CC(C)c1cc(/C=C(\C#N)C(=O)NCCCc2ccccc2)cc(C(C)C)c1O (10 µM)
1: RAF1
0: all other assays above

Nc1nccc(Oc2ccc(NC(=O)c3c[nH]cc(-c4ccc(F)cc4)c3=O)cc2F)c1Cl (10 µM)
3: PTK2 | RAF1 | TYK2
1: SPHK1 | STK38
5: ULK3
0: all other assays above

Oc1ccc(/C=C/c2cc(O)cc(O)c2)cc1 [Resveratrol] (10 µM)
0: all assays above

Cc1cccc(-c2[nH]c(C(C)(C)C)nc2-c2ccc3nccnc3c2)n1 (10 µM)
0: all assays above

Cc1nc(-c2cnn(C)c2)nc2c1[nH]c1ncc(-c3ccc(N4CCN(C)CC4)cc3)cc12 [GNE 220 (hydrochloride)] (10 µM)
0: all assays above

Cc1cc(C)nc(NS(=O)(=O)c2ccc(NC(=S)NC(=O)COc3ccc(Br)cc3Cl)cc2)n1 (2.5 µM)
0: all assays above

Nc1c(C(=O)NCc2ccc(C(=O)NCCCC3CCCCC3)cc2)cnn1-c1ccccc1 (2.5 µM)
0: all assays above

COc1ccc(-c2c(C)nn3c(NCCN4CCOCC4)cc(C)nc23)cc1OC (10 µM)
0: all assays above

C[C@@H]1CC(=O)c2c(ccc3c2C(=O)c2cccc(O)c2C3=O)C1 [Ochromycinone] (10 µM)
0: all assays above

CC(C)c1cccc(C(C)C)c1N1C(=O)c2ccc(N)cc2C1=O (2.5 µM)
0: all assays above

Two successive entries from above:
CCn1c(=O)c(-c2cc[nH]n2)cc2c(C)nc(N)nc21 [Voxtalisib] (10 µM)
2: PTK2 | RIPK1
0: all other assays above

Cn1cc(-c2cnc3cnn(S(=O)(=O)c4cnc5ccc(-c6cnn(C)c6)cn45)c3c2)cn1 [Glumetinib] (10 µM)
0: all assays above
